According to patent US20100173362A1:
No constants are given. Whether binding was seen depends on the method and setting. Some binding calls cover weakened binding; strength is not graded here.

Sequences of proteins named here, by UniProt entry; tags and fusion partners are left off. A change or cut given only in a name is not applied to a line headed by its entry. Residues count along the entry.
UniProt P14210, residues 32-728: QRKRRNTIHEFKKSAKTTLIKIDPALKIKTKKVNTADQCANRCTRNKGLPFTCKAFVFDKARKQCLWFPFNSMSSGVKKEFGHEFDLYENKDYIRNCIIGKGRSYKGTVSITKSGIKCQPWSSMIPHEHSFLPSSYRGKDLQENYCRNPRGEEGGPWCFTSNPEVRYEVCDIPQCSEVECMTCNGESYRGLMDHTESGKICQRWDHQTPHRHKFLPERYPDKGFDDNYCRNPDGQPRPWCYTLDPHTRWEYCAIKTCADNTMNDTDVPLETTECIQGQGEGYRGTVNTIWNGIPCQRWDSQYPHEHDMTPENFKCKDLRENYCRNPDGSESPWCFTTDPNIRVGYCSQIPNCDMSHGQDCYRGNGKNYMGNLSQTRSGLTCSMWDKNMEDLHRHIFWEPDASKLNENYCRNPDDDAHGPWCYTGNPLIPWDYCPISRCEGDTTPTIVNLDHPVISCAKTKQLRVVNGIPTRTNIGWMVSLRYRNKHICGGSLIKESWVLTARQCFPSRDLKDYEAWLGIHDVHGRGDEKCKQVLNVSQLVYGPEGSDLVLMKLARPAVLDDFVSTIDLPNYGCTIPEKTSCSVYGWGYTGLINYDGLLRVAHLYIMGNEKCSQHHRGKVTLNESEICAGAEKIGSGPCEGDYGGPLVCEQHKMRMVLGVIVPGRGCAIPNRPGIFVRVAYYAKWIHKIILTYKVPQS
UniProt Q08048: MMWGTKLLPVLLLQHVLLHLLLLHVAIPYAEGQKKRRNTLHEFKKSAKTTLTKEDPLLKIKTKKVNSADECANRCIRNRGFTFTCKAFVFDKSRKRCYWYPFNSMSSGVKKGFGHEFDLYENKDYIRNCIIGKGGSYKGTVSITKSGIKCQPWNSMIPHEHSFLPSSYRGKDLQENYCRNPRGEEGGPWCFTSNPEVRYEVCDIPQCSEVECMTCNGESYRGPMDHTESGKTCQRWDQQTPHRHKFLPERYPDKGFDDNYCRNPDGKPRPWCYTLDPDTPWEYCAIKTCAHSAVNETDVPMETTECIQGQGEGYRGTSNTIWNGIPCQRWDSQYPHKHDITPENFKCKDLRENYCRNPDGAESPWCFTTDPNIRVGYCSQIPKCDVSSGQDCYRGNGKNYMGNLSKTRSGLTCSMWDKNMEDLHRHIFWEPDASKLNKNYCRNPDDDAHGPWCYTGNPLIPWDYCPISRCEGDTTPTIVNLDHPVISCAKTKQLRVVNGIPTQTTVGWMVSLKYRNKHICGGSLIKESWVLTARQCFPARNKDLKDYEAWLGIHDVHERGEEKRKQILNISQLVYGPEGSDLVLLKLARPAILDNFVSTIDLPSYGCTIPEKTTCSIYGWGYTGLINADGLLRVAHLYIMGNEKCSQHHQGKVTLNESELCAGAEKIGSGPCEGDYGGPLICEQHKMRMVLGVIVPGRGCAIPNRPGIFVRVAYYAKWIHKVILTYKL

Key:
[1] = biological target: human HGF (recombinant hHGF of Example 3) (human) (UniProt P14210); assay: SPR (BIAcore T100), summary of Table 3
[2] = biological target: mhm chimera (V495-L585) (mouse HGF with human HGF V495-L585) (UniProt Q08048); assay: SPR (BIAcore T100), summary of Table 3
reduced rhHGF (human) [3] = biological target: reduced rhHGF (human) (UniProt P14210); assay: immunoblot, reduced rhHGF, summary of Table 4
reduced rhHGF (human) [4] = biological target: reduced rhHGF (human) (UniProt P14210); assay: immunoblot, reduced rhHGF, antibody 5 µg/mL, exposure 3-5 min, grade - to 3+
[5] = biological target: human HGF (recombinant hHGF of Example 3) (human) (UniProt P14210); assay: SPR (BIAcore T100), antibody amine-coupled on CM5 chip, antigen injected; yes/no
[6] = biological target: mhm chimera (V495-L585) (mouse HGF with human HGF V495-L585) (UniProt Q08048); assay: as above

Measured: binding

B1: 1F3 (antibody, mouse IgG1, kappa, V domains shown)
VH: EVQLVESGGGLVQSGGSLKLSCAASGFTFSNYFMSWVRQTPEKRLEWVAYISSGGGSTYYPDSVKGRFTISRDNAKNTLYLQMSSLKSEDTAMYYCVRQGDGYYGDYAMDYWGQGTSVTVSS
VL: DIQMTQSPASLSVSVGETVTITCRASENIYSNLAWYQQKQGKSPQLLVYDATHLPDGVPSRFSGSGSGTQFSLKINSLQSEDFGSYYCQHFWGTPYTFGGGTRLEIKR
binds: all assays above

B2: 1A3 (antibody, mouse IgG1, kappa, V domains shown)
VH: EVQLVESGGGLVQPGGSLKLSCAASEFTFSNYYMSWVRQTPEKRLQWVAYISPGGGSSYYPASVKGRFTISRDNAKNTLYLQMSSLKSEDTAMYYCARQGDGYYGDYAMDYWGQGTSVTVSS
VL: DIQMTQSPASLSVSVGETVTITCRASENIYSNLAWYQQKQGKSPQLLVYAATNLADGVPSRFSGSGSGTQFSLKINSLQSEDFGTYYCQHFWGTPYTFGGGTKLEIKR
binds: [1] | reduced rhHGF (human) [3] | reduced rhHGF (human) [4] | [5]

B3: 1D3 (antibody, mouse IgG1, kappa, V domains shown)
VH: EVQLVESGGGLVQPGGSLKLSCAASGFTFSDYYMSWVRQTPEKRLEWVAYISSGGGSTYYPDSVKGRFTISRDNAKNTLYLQMSSLKSEDTAIYYCVRQGDGYYGDYAMDYWGQGTSVIVSS
VL: DIQMTQSPASLSVSVGETVTITCRTSENIYSNLAWYQQKQGKSPQLLIYAATNLADGVPSRFSGSGSGTQFSLRINSLQSEDFGRYYCQHFWGTPYTFGGGTKLEIKR
binds: all assays above

B4: 2F8 (antibody, mouse IgG1, kappa, V domains shown)
VH: QVQLKQSGAELVRPGTSVKMSCKASGYTFTTYYIHWVNQRPGQGLEWIGKIGPGSGSTYYNEMFKDKATLTVDTSSSTAYMQLSSLTSDDSAVYFCARRGLGRGFDYWGQGTTLTVSS
VL: DIVLTQSPASLAVSLGQRATISCKASQSVDYDGNSYINWYQQKPGQPPKVLIYVASNLESGIPARFSGSGSGTDFTLNIHPVEEEDAATYYCQQSIEDPPTFGAGTKLELKR
binds: [1] | reduced rhHGF (human) [3] | reduced rhHGF (human) [4] | [5]

B5: 3B6 (antibody, mouse IgG1, kappa, V domains shown)
VH: QVQLQQSGAELVRPGSSVKISCKASGYVFSSYWMNWVKQRPGQGLEWIGQIYPGDGDSNYNGNFKGKATLTADKSSSTAYMQLSSLTSEDSAVYFCASQLGLRENYFDYWGQGTTLTVSS
VL: DIKMTQSPSSMYASLGERVTITCKASQDIKSYLSWFQQKPGKSPKTLIYRVNRLVDGVPSRFSGSGSGQDSSLTITSLENEDMGIYYCLQYDEFPFTFGGGTKLEIKR
binds: [1] | reduced rhHGF (human) [3] | reduced rhHGF (human) [4] | [5]
